These are yes or no findings as the source states them, for the method shown. Binding can be weak; no strength is given.

The target of this assay is SmbHLH37 (yeast two-hybrid fusion) (Salvia miltiorrhiza). Briefly: two-hybrid; SmbHLH37 fused with the DNA-binding domain (pGBKT7), partners fused with the activation domain (pGADT7); yeast strain AH109; growth on SD/-Ade/-Leu/-Trp/-His/X-α-gal; images on day 5.

Regarding “SmJAZ8 (yeast two-hybrid fusion) (from UniProt A0A075BFE8)”, the binding entry is “binds”.

The values are drawn from PMC6262058.
